PMC7820456
No constants are given. Whether binding was seen depends on the method and setting. In cells and extracts the contact can be indirect. Some binding calls cover weakened binding; strength is not graded here.

Target: T1, transcription factor 7-like 2 (mouse (endogenous in STC-1)), Q924A0
T1 chain: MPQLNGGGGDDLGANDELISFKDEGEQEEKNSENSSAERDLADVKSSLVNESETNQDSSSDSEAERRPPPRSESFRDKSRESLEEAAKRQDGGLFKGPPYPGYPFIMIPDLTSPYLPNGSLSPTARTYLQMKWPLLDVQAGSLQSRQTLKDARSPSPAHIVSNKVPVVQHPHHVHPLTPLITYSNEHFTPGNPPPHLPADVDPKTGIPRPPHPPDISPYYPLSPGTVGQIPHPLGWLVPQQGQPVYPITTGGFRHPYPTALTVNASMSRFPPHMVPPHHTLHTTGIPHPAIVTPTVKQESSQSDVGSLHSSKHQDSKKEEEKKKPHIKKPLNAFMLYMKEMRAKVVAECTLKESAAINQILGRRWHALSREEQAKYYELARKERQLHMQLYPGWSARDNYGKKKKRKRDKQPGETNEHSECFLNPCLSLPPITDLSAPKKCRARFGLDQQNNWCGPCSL
Assay: co-IP; lysates of 4 x 10^5 STC-1 cells transfected with miR-194 inhibitor or NC; anti-TCF7L2 antibody 12 h, Protein A/G PLUS agarose 6 h; western blot for β-catenin; both proteins endogenous
Settings: remark: other sources report otherwise

binding: binds
B1: beta-catenin, Q02248 1-781 (protein)
chain: MATQADLMELDMAMEPDRKAAVSHWQQQSYLDSGIHSGATTTAPSLSGKGNPEEEDVDTSQVLYEWEQGFSQSFTQEQVADIDGQYAMTRAQRVRAAMFPETLDEGMQIPSTQFDAAHPTNVQRLAEPSQMLKHAVVNLINYQDDAELATRAIPELTKLLNDEDQVVVNKAAVMVHQLSKKEASRHAIMRSPQMVSAIVRTMQNTNDVETARCTAGTLHNLSHHREGLLAIFKSGGIPALVKMLGSPVDSVLFYAITTLHNLLLHQEGAKMAVRLAGGLQKMVALLNKTNVKFLAITTDCLQILAYGNQESKLIILASGGPQALVNIMRTYTYEKLLWTTSRVLKVLSVCSSNKPAIVEAGGMQALGLHLTDPSQRLVQNCLWTLRNLSDAATKQEGMEGLLGTLVQLLGSDDINVVTCAAGILSNLTCNNYKNKMMVCQVGGIEALVRTVLRAGDREDITEPAICALRHLTSRHQEAEMAQNAVRLHYGLPVVVKLLHPPSHWPLIKATVGLIRNLALCPANHAPLREQGAIPRLVQLLVRAHQDTQRRTSMGGTQQQFVEGVRMEEIVEGCTGALHILARDVHNRIVIRGLNTIPLFVQLLYSPIENIQRVAAGVLCELAQDKEAAEAIEAEGATAPLTELLHSRNEGVATYAAAVLFRMSEDKPQDYKKRLSVELTSSLFRTEPMAWNETADLGLDIGAQGEALGYRQDDPSYRSFHSGGYGQDALGMDPMMEHEMGGHHPGADYPVDGLPDLGHAQDLMDGLPPGDSNQLAWFDTDL
